The subject of this test is CD2F1 mice, L1210 leukemia ip, survival T/C. The test is described as follows: NCI In Vivo Anticancer Drug Screen. Data for tumor model L1210 Leukemia (intraperitoneal) in CD2F1 (CDF1) mice. The settings on record: higher T/C = longer survival. The method in brief: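 Compound-dosed mice with transplantable tumor versus matched vehicle controls; endpoint ratio T/C reported.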

Where [1] appears, read: T/C endpoint: mean survival time, dose: 200.0 mg/kg/injection, schedule: Q04DX003 (ip), vehicle: saline with Tween-80.
Where [2] appears, read: T/C endpoint: mean survival time, dose: 400.0 mg/kg/injection, schedule: Q01DX001 (ip), vehicle: saline with Tween-80.
Setting [3] is: T/C endpoint: mean survival time, dose: 400.0 mg/kg/injection, schedule: Q04DX003 (ip), vehicle: saline.

The list is a part of this screen's results and no random one: it is rich in T/C values a quarter to a half above the control, in often repeated tests (any T/C) and in doses without a T/C. Further doses and runs are listed elsewhere. T/C: endpoint of the treated group in % of that of the vehicle group. Some doses have a count of surviving animals in place of a T/C: the source files T/C as zero there, which appears to mark a toxic dose or a test without result, not a measured value. Some survivor counts are full or nearly so, which does not show that the dose was tolerated: the source hardly ever lists a survival T/C far under the control, and the zero likely stands for such cases as well. Counts of survivors are from the toxicity check (mostly the fifth day) where no day follows; animals may have died later. Schedules are NCI's codes, read here as Q, the interval in days (D) or hours (H), X, the number of doses. Some entries were tested several times; their values stand side by side, smallest first. For survival time, the PubChem record calls one and a half times the control and up active, and a quarter to a half above the control has no call in these data; cut-offs in other NCI protocols can differ.

In the case of `COC(COC(=O)N1CCN(C=O)CC1)C1=C(N2CC2)C(=O)C(C)=C(N2CC2)C1=O` (stereo not given), the T/C reads like this: (T/C endpoint: median survival time, dose: 0.75 mg/kg/injection, schedule: Q01DX005 (ip), vehicle: saline) 126 % of control; (T/C endpoint: median survival time, dose: 1.5 mg/kg/injection, schedule: Q01DX005 (ip), vehicle: saline) 135 % of control; (T/C endpoint: median survival time, dose: 2.16 mg/kg/injection, schedule: Q01DX005 (ip), vehicle: saline) 140 % of control. Further, the survivor count by setting is: (T/C endpoint: median survival time, dose: 10.0 mg/kg/injection, schedule: Q01DX005 (ip), vehicle: saline) 6 of 6; (T/C endpoint: median survival time, dose: 16.67 mg/kg/injection, schedule: Q01DX005 (ip), vehicle: saline) 4 of 6.
Regarding `c1ccc(CCNCc2ccccc2)cc1`, the survivor count under setting [1] is given as 1 of 6.
For `CCCCCCCCCCCCC/C=N/NC(=O)c1ccc[n+](C)c1`, the survivor count under setting [2] is given as 3 of 6.
Consider `CSc1nc(Cl)cc(Sc2nc(N)nc3nc[nH]c23)n1`, for which, under “T/C endpoint: mean survival time, dose: 75.0 mg/kg/injection, schedule: Q01DX009 (ip), vehicle: Klucel (hydroxypropylcellulose) (HPC)”, the T/C is 134 % of control. Also, the survivor count (T/C endpoint: mean survival time, dose: 300.0 mg/kg/injection, schedule: Q01DX009 (ip), vehicle: Klucel (hydroxypropylcellulose) (HPC)) is 6 of 6.
Turning to `Cc1cc(C)c2c(C#N)cn(-c3cccc(Cl)c3)c2n1`, the T/C (T/C endpoint: mean survival time, dose: 200.0 mg/kg/injection, schedule: Q04DX003 (ip), vehicle: saline) was 130 % of control. In addition, the survivor count under setting [3] is on record as 1 of 3.
As for `CC(C)c1ccc(C2CCCCC2O)cc1` (stereo not given), the survivor count (T/C endpoint: mean survival time, dose: 400.0 mg/kg/injection, schedule: Q01DX009 (ip), vehicle: saline with Tween-80) is recorded as 6 of 6.
As for `COc1cc([C@@H]2c3cc4c(cc3[C@H](O)[C@H]3COC(=O)[C@H]23)OCO4)cc(OC)c1OC`, the T/C is 132 % of control (T/C endpoint: median survival time, dose: 1.44 mg/kg/injection, schedule: Q01DX005 (ip), vehicle: saline with Tween-80); 126 % of control (T/C endpoint: median survival time, dose: 2.4 mg/kg/injection, schedule: Q01DX005 (ip), vehicle: saline with Tween-80); 125 % of control (T/C endpoint: median survival time, dose: 2.5 mg/kg/injection, schedule: Q01DX009 (ip), vehicle: saline with Tween-80); 142 % of control (T/C endpoint: median survival time, dose: 3.0 mg/kg/injection, schedule: Q01DX009 (ip), vehicle: saline with Tween-80); 131 % of control (T/C endpoint: median survival time, dose: 4.0 mg/kg/injection, schedule: Q01DX005 (ip), vehicle: Klucel (hydroxypropylcellulose) (HPC)); 136 % of control (T/C endpoint: median survival time, dose: 4.0 mg/kg/injection, schedule: Q01DX005 (ip), vehicle: saline with Tween-80). Moreover, the T/C was 141 % of control (T/C endpoint: median survival time, dose: 5.0 mg/kg/injection, schedule: Q01DX009 (ip), vehicle: saline with Tween-80, evaluated on day 20); 128 and 147 % of control (T/C endpoint: median survival time, dose: 5.0 mg/kg/injection, schedule: Q01DX009 (ip), vehicle: saline with Tween-80, evaluated on day 30); 144 % of control (T/C endpoint: median survival time, dose: 6.67 mg/kg/injection, schedule: Q01DX005 (ip), vehicle: saline with Tween-80); 125 % of control (T/C endpoint: median survival time, dose: 8.33 mg/kg/injection, schedule: Q01DX009 (ip), vehicle: saline with Tween-80); 136 % of control (T/C endpoint: median survival time, dose: 11.11 mg/kg/injection, schedule: Q01DX005 (ip), vehicle: saline with Tween-80). The survivor count is, setting by setting: (T/C endpoint: median survival time, dose: 8.0 mg/kg/injection, schedule: Q01DX005 (ip), vehicle: Klucel (hydroxypropylcellulose) (HPC)) 5 of 6; (T/C endpoint: median survival time, dose: 16.0 mg/kg/injection, schedule: Q01DX005 (ip), vehicle: Klucel (hydroxypropylcellulose) (HPC)) 2 of 6; (T/C endpoint: median survival time, dose: 32.0 mg/kg/injection, schedule: Q01DX005 (ip), vehicle: Klucel (hydroxypropylcellulose) (HPC)) 3 of 6.
Turning to `CCN1CCC(CC)(CN2c3ccccc3Sc3ccc(Cl)cc32)C1` (stereo not given), the survivor count under setting [3] is 0 of 6.
For the molecule `Oc1ccc(I)c2cccnc12`, the survivor count (T/C endpoint: mean survival time, dose: 22.5 mg/kg/injection, schedule: Q01DX009 (ip), vehicle: saline) was 6 of 6 and the survivor count (T/C endpoint: mean survival time, dose: 360.0 mg/kg/injection, schedule: Q01DX009 (ip), vehicle: saline) is on record as 4 of 6.
`CCC[CH2][Sn]1([CH2]CCC)[O]C2C(CO)OC(n3ccc(=O)[nH]c3=O)C2[O]1` (stereo not given): the survivor count (T/C endpoint: mean survival time, dose: 25.0 mg/kg/injection, schedule: Q01DX005 (ip), vehicle: other) is 2 of 6.
`Nc1nc2ncc(CNc3ccc(C(=O)NC(CCC(=O)O)C(=O)O)cc3)nc2c(=O)[nH]1.[NH-]C1CCCCC1[NH-].[Pt+2]` (stereo not given): the T/C (T/C endpoint: median survival time, dose: 200.0 mg/kg/injection, schedule: Q04DX003 (ip), vehicle: saline) was 128 % of control.
Take `CC(=O)[CH-]C(C)=O.CC(=O)[CH-]C(C)=O.CC(N)CN.[Ni+2]`: the survivor count by setting is: (T/C endpoint: mean survival time, dose: 100.0 mg/kg/injection, schedule: Q01DX009 (ip), vehicle: other) 6 of 6; (T/C endpoint: mean survival time, dose: 200.0 mg/kg/injection, schedule: Q01DX009 (ip), vehicle: other) 2 of 6.
Consider `N#CC1(NC(=O)N(CCCl)N=O)CCCCC1`, for which the T/C is, setting by setting: (T/C endpoint: mean survival time, dose: 12.5 mg/kg/injection, schedule: Q01DX001 (ip), vehicle: distilled water + Tween-80, evaluated on day 30) 126 % of control; (T/C endpoint: mean survival time, dose: 12.5 mg/kg/injection, schedule: Q01DX001 (ip), vehicle: distilled water + Tween-80, evaluated on day 40) 130 % of control; (T/C endpoint: mean survival time, dose: 25.0 mg/kg/injection, schedule: Q01DX001 (ip), vehicle: distilled water + Tween-80) 145 % of control. For the same molecule, for the setting “T/C endpoint: mean survival time, dose: 100.0 mg/kg/injection, schedule: Q01DX001 (ip), vehicle: distilled water + Tween-80”, the survivor count is 0 of 6 and 1 of 6.
`C=CCCCCCCCCC(=O)NC(C)COC` (stereo not given): under setting [2], the survivor count is 0 of 6.
Consider `NC(N)=N/N=C/c1ccc(Cl)c(Cl)c1`, for which the survivor count is on record as 6 of 6 (T/C endpoint: mean survival time, dose: 100.0 mg/kg/injection, schedule: Q04DX003 (ip), vehicle: saline with Tween-80); 5 of 6 under setting [1]; 3 of 6 (T/C endpoint: mean survival time, dose: 400.0 mg/kg/injection, schedule: Q04DX003 (ip), vehicle: saline with Tween-80).
Turning to `CC(C)[C@]12O[C@H]1[C@@H]1O[C@]13[C@]1(O[C@H]1C[C@H]1C4=C(C(=O)OC4)[C@@H](O)C[C@@]13C)[C@@H]2O`, the T/C (T/C endpoint: mean survival time, dose: 125.0 micrograms/kg/injection, schedule: Q01DX009 (ip), vehicle: saline + alcohol) is 142 % of control; the T/C (T/C endpoint: median survival time, dose: 16.0 micrograms/kg/injection, schedule: Q03HX024 (ip), vehicle: saline + alcohol) was 126 % of control; the T/C (T/C endpoint: median survival time, dose: 16.0 micrograms/kg/injection, schedule: Q03HX024 (ip), vehicle: saline) was 125 % of control; the T/C (T/C endpoint: median survival time, dose: 30.0 micrograms/kg/injection, schedule: Q03HX024 (ip), vehicle: saline) was 148 % of control; the T/C (T/C endpoint: median survival time, dose: 31.2 micrograms/kg/injection, schedule: Q03HX008 (ip), vehicle: saline + alcohol) is 127 % of control; the T/C (T/C endpoint: median survival time, dose: 31.2 micrograms/kg/injection, schedule: Q03HX016 (ip), vehicle: saline + alcohol) was 144 % of control. Moreover, the T/C is, setting by setting: (T/C endpoint: median survival time, dose: 60.0 micrograms/kg/injection, schedule: Q01DX009 (ip), vehicle: saline) 127 % of control; (T/C endpoint: median survival time, dose: 125.0 micrograms/kg/injection, schedule: Q01DX009 (ip), vehicle: saline + alcohol) 136 % of control; (T/C endpoint: median survival time, dose: 250.0 micrograms/kg/injection, schedule: Q01DX009 (sc), vehicle: saline + alcohol) 133 % of control. Further, the survivor count was 3 of 10 (T/C endpoint: median survival time, dose: 130.0 micrograms/kg/injection, schedule: Q03HX024 (ip), vehicle: saline); 0 of 10 (T/C endpoint: median survival time, dose: 250.0 micrograms/kg/injection, schedule: Q03HX008 (ip), vehicle: saline + alcohol); 0 of 10 (T/C endpoint: median survival time, dose: 250.0 micrograms/kg/injection, schedule: Q03HX016 (ip), vehicle: saline + alcohol); 0 of 10 (T/C endpoint: median survival time, dose: 500.0 micrograms/kg/injection, schedule: Q03HX008 (ip), vehicle: saline + alcohol); 6 of 10 (T/C endpoint: median survival time, dose: 1000.0 micrograms/kg/injection, schedule: Q01DX001 (sc), vehicle: saline + alcohol); 0 of 10 (T/C endpoint: median survival time, dose: 2000.0 micrograms/kg/injection, schedule: Q01DX001 (ip), vehicle: saline + alcohol). The survivor count (T/C endpoint: median survival time, dose: 2000.0 micrograms/kg/injection, schedule: Q01DX001 (sc), vehicle: saline + alcohol) was 0 of 10; the survivor count (T/C endpoint: median survival time, dose: 2000.0 micrograms/kg/injection, schedule: Q08DX002 (ip), vehicle: saline + alcohol) is 0 of 10; the survivor count (T/C endpoint: median survival time, dose: 4000.0 micrograms/kg/injection, schedule: Q01DX001 (ip), vehicle: saline + alcohol) is listed as 0 of 10; the survivor count (T/C endpoint: median survival time, dose: 4000.0 micrograms/kg/injection, schedule: Q01DX001 (sc), vehicle: saline + alcohol) was 0 of 10.

Source of the values: PubChem BioAssay AID256 (DTP/NCI, 2004).
